{"source": "PubChem BioAssay AID504467", "about": "(National Center for Advancing Translational Sciences (NCATS), 2011)", "note": "The whole screen tested about 330,000 compounds, of which about 7,700 (2.3%) were called active. Inconclusive means that the source gave no clear call. Such entries were picked first, then a sample of the others. The call rests on the fitted dose curve; in most records, active means well fitted inhibition curve with a large enough effect; inconclusive means small, poorly fitted or top-dose-only effect, or effect the other way; inactive means flat fitted curve, though single readings scatter. A potency beside an inconclusive call is a rough fit, not a confirmed value. Potency means the concentration at half of the fitted maximal effect.", "data": [{"experiment": "qHTS screen for small molecules that inhibit ELG1-dependent DNA repair in human embryonic kidney (HEK293T) cells expressing luciferase-tagged ELG1; further: nearly all actives have a fitted effect of over 55% in size", "settings": "HEK293T ELG1-luciferase reporter, luminescence, 16 h, DNA damage induced by 5-fluorouridine; series mostly up to 46.1 µM", "outline": "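5-Fluorouridine DNA damage + compound/DMSO, 2,000 cells/well, 16 h, 37 °C/5% CO2. ONE-Glo, 30 min RT, luminescence. Readout = decrease in reporter signal.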", "values": [{"smiles": "CCOc1ccc(NC(=O)CSc2nnc(-c3ccccc3)n2N)cc1", "Potency": "inconclusive: 35.5 µM [inhibitor, single point]"}, {"smiles": "CN(CC(=O)Nc1ccc(Cl)cc1)C(=O)c1cccc(S(=O)(=O)N2CCN(Cc3ccccc3)CC2)c1", "Potency": "inconclusive: 13 µM [inhibitor, partial curve, poor fit]"}, {"smiles": "COc1ccc(NC(=S)NNC(=O)c2cccs2)cc1", "Potency": "inconclusive: 11.6 µM [activator, partial curve]"}, {"smiles": "Cc1ccc(C)c(OCCSc2nnc(C)c(=O)[nH]2)c1", "Potency": "inconclusive: 23.1 µM [inhibitor, partial curve, poor fit]"}, {"smiles": "CC(C)C[C@H](NC(=O)c1nc[nH]c1C(=O)N[C@@H](CC(C)C)C(=O)OC(C)(C)C)C(=O)OCc1ccccc1", "Potency": "inactive"}, {"smiles": "CC(=O)c1c(C)[nH]c(C(=O)NCc2ccccn2)c1C", "Potency": "inconclusive: 16.4 µM [activator, single point]"}, {"smiles": "COCCCn1c(=NC(=O)c2ccc3c(c2)OCO3)c(C#N)cc2c(=O)n3cccc(C)c3nc21", "Potency": "inactive"}, {"smiles": "O=C(CC1(O)C(=O)Nc2ccccc21)c1ccc(-n2cccc2)cc1", "note": "(stereo not drawn)", "Potency": "inconclusive: 16.4 µM [activator, single point]"}, {"smiles": "CCOC1CCc2c(C)nc(N)nc2S1", "note": "(stereo not drawn)", "Potency": "inactive"}, {"smiles": "CCn1c(SCC(=O)NCc2ccccc2)nnc1C(CO)NC(=O)c1ccccc1", "note": "(stereo not drawn)", "Potency": "inactive"}, {"smiles": "O=C(NN=C1C2CC3CC1CC(Cl)(C3)C2)c1cccs1", "Potency": "inconclusive: 18.3 µM [activator, partial curve]"}, {"smiles": "C=CCOC(=O)C1=C(C)NC(SCC(=O)Nc2nccs2)=C(C#N)C1c1ccc(Cl)cc1", "note": "(stereo not drawn)", "Potency": "inconclusive: 29.1 µM [inhibitor, single point]"}, {"smiles": "Cc1nc(/C(N)=N/OC(=O)c2c(-c3ccccc3Cl)noc2C)cs1", "Potency": "inconclusive: 23.1 µM [inhibitor, partial curve, poor fit]"}, {"smiles": "CCCc1n[nH]c(=O)c2c1nnn2Cc1ccccc1", "Potency": "inactive"}, {"smiles": "COc1ccccc1C(=O)NCCCNC(=O)c1cnccn1", "Potency": "inactive"}, {"smiles": "CCOc1cc(N2CCOCC2)c(OCC)cc1NC(=O)CSc1cccc[n+]1[O-]", "Potency": "inactive"}, {"smiles": "O=C(NCCc1c[nH]c2ccccc12)C(=O)Nc1cc2c3c(c1)CC(=O)N3CCC2", "Potency": "inconclusive: 29.1 µM [inhibitor, single point]"}, {"smiles": "COC(=O)c1ccc(CNC(=O)c2ccc3oc(C(C)C)nc3c2)cc1", "Potency": "inconclusive: 20.6 µM [activator, single point]"}, {"smiles": "O=C(CNC(c1ccccc1)c1ccccc1)Nc1c(F)cccc1F", "Potency": "inactive"}, {"smiles": "CSc1ccc(CNc2ccc(Cl)cc2)cc1", "Potency": "inconclusive: 29.1 µM [activator, single point]"}, {"smiles": "N#Cc1c[nH]n2c(=O)c3c(nc12)CCCC3", "Potency": "inactive"}, {"smiles": "NNc1nc2cccnc2n(CCNc2ncc(C(F)(F)F)cc2Cl)c1=O", "Potency": "inconclusive: 29.1 µM [inhibitor, single point]"}, {"smiles": "O=C(c1ccc(COc2c(F)c(F)cc(F)c2F)o1)N1CCN(c2ccc(Cl)cc2)CC1", "Potency": "inconclusive: 20.6 µM [inhibitor, single point]"}, {"smiles": "CCN(Cc1cc2cc(C)ccc2[nH]c1=O)C(=O)c1cccc(OC)c1", "Potency": "inconclusive: 20.6 µM [inhibitor, partial curve]"}, {"smiles": "Cc1ccc2c(c1)c(N=NC(N)=S)c(O)n2Cc1ccccc1", "Potency": "inactive"}, {"smiles": "C=CC[C@H]1CC(C)=C[C@H](CC=C)N1C(=O)c1cc(COc2ccccc2SC)on1", "Potency": "inactive"}, {"smiles": "CC(=O)N1CCN(c2ccc(NC(=O)COc3ccc(Cl)cc3Cl)cc2)CC1", "Potency": "active: 9.2 µM"}, {"smiles": "COc1ccc(N2C(=O)C(CC(=O)Nc3ccccc3)N(Cc3cccs3)C2=O)cc1", "note": "(stereo not drawn)", "Potency": "inactive"}, {"smiles": "COc1ccc(/C=N/NC(=O)c2cc3c(ccc4ccccc43)o2)c(OC)c1", "Potency": "inconclusive: 18.3 µM [inhibitor, single point]"}, {"smiles": "CC1CCc2nc(/C(C#N)=C/c3ccncc3)sc2C1", "note": "(stereo not drawn)", "Potency": "inconclusive: 2.31 µM [activator, partial curve]"}, {"smiles": "Nc1cc(=O)[nH]c(SCC(=O)NC2CCCCCCC2)n1", "Potency": "inactive"}, {"smiles": "CC(=O)N1c2c(cc(Br)cc2S(=O)(=O)Nc2c(C)n(C)n(-c3ccccc3)c2=O)CC1C", "note": "(stereo not drawn)", "Potency": "inconclusive: 6.51 µM [inhibitor, single point]"}, {"smiles": "O=C(NCc1ccco1)C(=S)N1CCCC1", "Potency": "inconclusive: 23.1 µM [activator, partial curve, poor fit]"}, {"smiles": "Cc1ccc(S(=O)(=O)N(C)C)cc1NC(=O)COC(=O)C1CCN(S(=O)(=O)c2cccs2)CC1", "Potency": "inactive"}, {"smiles": "C/C(=N/NC(=O)c1ccoc1C)c1ccc(NC(=O)C2CCCC2)cc1", "Potency": "inconclusive: 7.31 µM [activator, partial curve]"}, {"smiles": "COc1cc2c(cc1OC)/C(=C/c1ccc(Br)cc1)C(=O)OC2", "Potency": "inconclusive: 32.6 µM [inhibitor, single point]"}, {"smiles": "COc1ccc(OC)c(NC(=O)CSc2nnc(-c3ccco3)n2-c2ccccc2)c1", "Potency": "active: 10.3 µM"}, {"smiles": "COc1ccc(O)c(CN2CCC(n3nccc3NC(=O)c3ccccc3Cl)CC2)c1", "Potency": "inactive"}, {"smiles": "COCC1CCCN(C(=O)c2ccc3oc(CCCc4ccccc4)nc3c2)C1", "note": "(stereo not drawn)", "Potency": "inactive"}, {"smiles": "CCCc1nc([N+](=O)[O-])c(S(=O)(=O)c2ccccc2)n1CC(C)C", "Potency": "inactive"}, {"smiles": "O=C(NC1CCCCCC1)C1CCN(S(=O)(=O)c2cccc3cccnc23)CC1", "Potency": "inactive"}, {"smiles": "O=C(NNS(=O)(=O)c1ccccc1[N+](=O)[O-])c1ccc(F)cc1", "Potency": "inactive"}, {"smiles": "N#Cc1c(NC(=O)c2cnccn2)sc2c1CCCC2", "Potency": "inconclusive: 20.6 µM [activator, partial curve]"}, {"smiles": "CC(NC(=O)C12CC3CC(C1)CC(n1cncn1)(C3)C2)C12CC3CC(CC(C3)C1)C2", "note": "(stereo not drawn)", "Potency": "inactive"}, {"smiles": "CCn1c(SCC(=O)Nc2nc3ccc(C)cc3s2)nc2c(c1=O)SC(C)C2", "note": "(stereo not drawn)", "Potency": "inconclusive: 5.17 µM [inhibitor, partial curve]"}, {"smiles": "CC(=O)c1ccccc1C(=O)N1CCCC(CCC(=O)N2CCN(c3ccccn3)CC2)C1", "note": "(stereo not drawn)", "Potency": "active: 23.1 µM"}, {"smiles": "NC(=O)c1ccc(N2CCN(S(=O)(=O)c3ccccc3)CC2)c([N+](=O)[O-])c1", "Potency": "active: 1.64 µM"}, {"smiles": "CCOCCOC(=O)C1=C(C)Nc2ccc(C)cc2S1", "Potency": "inconclusive: 18.4 µM [activator, partial curve, poor fit]"}, {"smiles": "CCSc1nnc(-c2ccncc2)o1", "Potency": "inactive"}, {"smiles": "CC(=O)c1ccc(NC(=O)CSCCO)cc1", "Potency": "inconclusive: 29.1 µM [activator, single point]"}, {"smiles": "COc1ccc(N(CC(=O)Nc2cccc(C)c2)S(=O)(=O)c2c(C)noc2C)cc1", "Potency": "inactive"}, {"smiles": "Cc1ccn2c(=O)c(C(=O)NCCC3=CCCCC3)c(O)nc2c1", "Potency": "inconclusive: 20.6 µM [activator, single point]"}, {"smiles": "Cc1ccccc1Nc1nc(N)nc(CSCC(=O)Nc2cccc(Br)c2)n1", "Potency": "inconclusive: 18.4 µM [inhibitor, partial curve, poor fit]"}, {"smiles": "O=C(O)C1CCCCC1C(=O)Nc1ccccc1Nc1ccccc1", "note": "(stereo not drawn)", "Potency": "inactive"}, {"smiles": "COCCN(CCOC)C(=O)c1ccc(CSc2nc3ccccc3s2)cc1", "Potency": "inconclusive: 14.6 µM [activator, partial curve]"}, {"smiles": "CN(C)CCCOC(=O)N1c2ccccc2C=Cc2ccccc21", "Potency": "inactive"}, {"smiles": "Nc1nonc1-n1nnc(C(=O)N/N=C/c2ccc(OCc3ccccc3F)cc2)c1CNc1ccccc1", "Potency": "inconclusive: 20.6 µM [activator, partial curve, poor fit]"}, {"smiles": "CC(C)(C)n1[nH]c2c3c(ccc2c1=O)C(=O)c1ccccc1C3=O", "Potency": "inactive"}, {"smiles": "COc1ccc(N(C)C(=O)c2cc3c(Cl)nc4ccccc4c3s2)cc1", "Potency": "inconclusive: 25.9 µM [inhibitor, single point]"}, {"smiles": "COc1ccc(OCC(O)CNCCOc2ccccc2OC)c(C(C)(C)C)c1", "note": "(stereo not drawn)", "Potency": "inconclusive: 20.6 µM [inhibitor, single point]"}, {"smiles": "CCOC(=O)C(CC)Sc1nnc2c3cc(C)ccc3n(C)c2n1", "note": "(stereo not drawn)", "Potency": "inconclusive: 16.4 µM [inhibitor, partial curve, poor fit]"}, {"smiles": "Cc1n[nH]c(C)c1C(=O)CC1(O)C(=O)N(Cc2ccccc2)c2ccc(Br)cc21", "note": "(stereo not drawn)", "Potency": "inactive"}, {"smiles": "O=C(NC1CCCCC1)c1cc(-c2cccc(Cl)c2)on1", "Potency": "inconclusive: 5.8 µM [activator, partial curve]"}, {"smiles": "C=CCn1c(=O)c2c(C)c(C)sc2n2c(Nc3ccccc3)nnc12", "Potency": "inconclusive: 10.3 µM [inhibitor, partial curve]"}, {"smiles": "CCN(CC)S(=O)(=O)c1ccc(C(=O)Nc2ccc3c(c2)OCCO3)cc1", "Potency": "inconclusive: 29.1 µM [inhibitor, single point]"}, {"smiles": "CC/C(Cc1ccccc1)=N/NC(=O)CNC(=O)c1ccc(Cl)cc1Cl", "Potency": "inactive"}, {"smiles": "CCCCOc1ccc(N2C(=O)CC(NCCc3ccc(S(N)(=O)=O)cc3)C2=O)cc1", "note": "(stereo not drawn)", "Potency": "inactive"}, {"smiles": "CCOC(=O)[C@@H]1[C@H]2COc3ccc(Br)cc3[C@H]2N2C(=O)N(c3ccc(C)cc3)C(=O)[C@]12C", "Potency": "inactive"}, {"smiles": "C=CCOc1ccc(Br)cc1CNCCCN1CCOCC1", "Potency": "inactive"}, {"smiles": "Nc1[nH]n(-c2c(Cl)cc(Cl)cc2Cl)c(=O)c1N=Nc1ccc(S(=O)(=O)Nc2ncccn2)cc1", "Potency": "inconclusive: 25.9 µM [activator, single point]"}, {"smiles": "CCOC(=O)c1c(-c2ccccc2)csc1NC(=O)/C(C#N)=C/c1ccc(O)c(OC)c1", "Potency": "inconclusive: 29.1 µM [inhibitor, single point]"}, {"smiles": "O=C(NC1CCCCCC1)C1CCCN(c2ncccn2)C1", "note": "(stereo not drawn)", "Potency": "inconclusive: 20.6 µM [activator, single point]"}, {"smiles": "CCc1nc(SCC(=O)Nc2nnc(CC(C)C)s2)n[nH]1", "Potency": "inactive"}]}]}
